Data source: PubChem BioAssay AID504808 (Drosophila RNAi Screening Center, 2011)
In all, the deposit lists about 21,000 reagents; shown is an unselected part of those with a known target gene and a result. In the full data, 18 (0.084%) are marked active. 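Raw counts without plate normalisation, one of two replicates; the ratio scores behind the calls were not deposited.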 A number with no mark means an inactive call. A plus sign joins genes that one reagent is predicted to hit. Reagent sequences are not shown. Not given: the amount of reagent, the time to read-out.

Screen: 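Chromatin factors that keep E2F targets switched off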 (primary screen)
System: Drosophila S2 cells
Reagents: long dsRNA against Drosophila genes
Detection: 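Firefly luciferase driven by E2F sites, normalised to Renilla luciferase on the same minimal promoter, measured by plate reader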
Reading the numbers: E2F firefly: higher = more E2F reporter activity; Renilla normaliser: higher = more normaliser reporter signal
Active means: 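Called active if the normalised E2F reporter went up by over 50%; the cutoff is arbitrary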

For TotM [DRSC02355], how do the results read?
E2F firefly, rep 1: 1.56e5; Renilla normaliser, rep 1: 5674

What is on record for CG13978 [DRSC14720]?
E2F firefly, rep 1: 1.19e5; Renilla normaliser, rep 1: 5709

What did the screen give for Cyp4aa1 [DRSC07368]?
E2F firefly, rep 1: 1.46e5; Renilla normaliser, rep 1: 4401

How did the screen score Pask [DRSC04337]?
E2F firefly, rep 1: 92966; Renilla normaliser, rep 1: 3631

How did the screen score CG2983 [DRSC00558]?
E2F firefly, rep 1: 1.57e5; Renilla normaliser, rep 1: 5295

For l(3)05822 [DRSC16202], what does the deposit list?
E2F firefly, rep 1: 68043; Renilla normaliser, rep 1: 2829

How did the screen score Mpcp2 [DRSC11226]?
E2F firefly, rep 1: 1.73e5; Renilla normaliser, rep 1: 8335

Which result is listed for Gr63a [DRSC08438]?
E2F firefly, rep 1: 92218; Renilla normaliser, rep 1: 3704

For pdm3 [DRSC06076], how do the results read?
E2F firefly, rep 1: 1.50e5; Renilla normaliser, rep 1: 5021

For pdm3 [DRSC06490], what does the deposit list?
E2F firefly, rep 1: 1.52e5; Renilla normaliser, rep 1: 5176

For CG31221 [DRSC14335], how do the results read?
E2F firefly, rep 1: 1.46e5; Renilla normaliser, rep 1: 7453

Which result is listed for CG31221 [DRSC16217]?
E2F firefly, rep 1: 1.44e5; Renilla normaliser, rep 1: 6780

3 neighbouring records already listed, for reference:
Cyp4aa1 [DRSC07368] → E2F firefly, rep 1 = 1.46e5; Renilla normaliser, rep 1 = 4401
Pask [DRSC04337] → E2F firefly, rep 1 = 92966; Renilla normaliser, rep 1 = 3631
CG2983 [DRSC00558] → E2F firefly, rep 1 = 1.57e5; Renilla normaliser, rep 1 = 5295

Further reagents follow.
With Tim10 + CG42497 [DRSC04664], what does the deposit list?
E2F firefly, rep 1: 88764; Renilla normaliser, rep 1: 3813

What is on record for CG8745 [DRSC11033]?
E2F firefly, rep 1: 78623; Renilla normaliser, rep 1: 3187

What is on record for CG8745 [DRSC11034]?
E2F firefly, rep 1: 1.03e5; Renilla normaliser, rep 1: 4917

Which result is listed for CG14881 [DRSC15005]?
E2F firefly, rep 1: 1.03e5; Renilla normaliser, rep 1: 5660

Which result is listed for CG13077 [DRSC02181]?
E2F firefly, rep 1: 1.08e5; Renilla normaliser, rep 1: 4045

What did the screen give for sotv + CG10731 [DRSC05930]?
E2F firefly, rep 1: 1.41e5; Renilla normaliser, rep 1: 4672

For sotv + CG10731 [DRSC05997], how do the results read?
E2F firefly, rep 1: 1.59e5; Renilla normaliser, rep 1: 5467

What did the screen give for CG13947 [DRSC00365]?
E2F firefly, rep 1: 1.62e5; Renilla normaliser, rep 1: 7079

With ImpE2 [DRSC08665], how do the results read?
E2F firefly, rep 1: 80390; Renilla normaliser, rep 1: 4381

Which result is listed for Nemp [DRSC20206]?
E2F firefly, rep 1: 1.64e5; Renilla normaliser, rep 1: 5974

Which result is listed for CG34224 [DRSC05269]?
E2F firefly, rep 1: 1.38e5; Renilla normaliser, rep 1: 4956

Which result is listed for CG10086 [DRSC14183]?
E2F firefly, rep 1: 1.37e5; Renilla normaliser, rep 1: 6130

With RpL36 [DRSC18708], how do the results read?
E2F firefly, rep 1: 55978; Renilla normaliser, rep 1: 5273

For Ucp4C [DRSC03132], what was measured?
E2F firefly, rep 1: 1.43e5; Renilla normaliser, rep 1: 5186

For Bub3 [DRSC14168], what was measured?
E2F firefly, rep 1: 1661; Renilla normaliser, rep 1: 1076

For flfl [DRSC16474], what was measured?
E2F firefly, rep 1: 68078; Renilla normaliser, rep 1: 2870
